# From PMC8634639
# Amino acid sequences for entries named in this document (tags omitted).
# UniProt Q969H0: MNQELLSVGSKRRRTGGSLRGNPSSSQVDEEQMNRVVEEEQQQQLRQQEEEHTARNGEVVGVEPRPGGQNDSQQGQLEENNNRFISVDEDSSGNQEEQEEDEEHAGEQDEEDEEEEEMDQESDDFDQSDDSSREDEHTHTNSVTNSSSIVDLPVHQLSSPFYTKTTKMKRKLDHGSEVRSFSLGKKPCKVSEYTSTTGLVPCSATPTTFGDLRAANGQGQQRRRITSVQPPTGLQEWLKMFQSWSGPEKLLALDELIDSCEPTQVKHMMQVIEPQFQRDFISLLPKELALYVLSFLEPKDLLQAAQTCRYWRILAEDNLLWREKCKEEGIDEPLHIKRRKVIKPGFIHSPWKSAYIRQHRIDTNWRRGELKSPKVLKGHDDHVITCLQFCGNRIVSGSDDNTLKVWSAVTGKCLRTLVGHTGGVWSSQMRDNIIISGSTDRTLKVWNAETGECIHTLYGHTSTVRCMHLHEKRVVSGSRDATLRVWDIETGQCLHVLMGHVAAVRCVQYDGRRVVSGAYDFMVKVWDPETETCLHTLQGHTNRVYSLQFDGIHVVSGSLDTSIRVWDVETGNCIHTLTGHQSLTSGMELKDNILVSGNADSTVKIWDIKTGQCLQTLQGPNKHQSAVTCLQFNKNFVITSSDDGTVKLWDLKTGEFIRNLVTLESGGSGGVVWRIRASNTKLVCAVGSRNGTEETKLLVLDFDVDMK
# UniProt Q00987: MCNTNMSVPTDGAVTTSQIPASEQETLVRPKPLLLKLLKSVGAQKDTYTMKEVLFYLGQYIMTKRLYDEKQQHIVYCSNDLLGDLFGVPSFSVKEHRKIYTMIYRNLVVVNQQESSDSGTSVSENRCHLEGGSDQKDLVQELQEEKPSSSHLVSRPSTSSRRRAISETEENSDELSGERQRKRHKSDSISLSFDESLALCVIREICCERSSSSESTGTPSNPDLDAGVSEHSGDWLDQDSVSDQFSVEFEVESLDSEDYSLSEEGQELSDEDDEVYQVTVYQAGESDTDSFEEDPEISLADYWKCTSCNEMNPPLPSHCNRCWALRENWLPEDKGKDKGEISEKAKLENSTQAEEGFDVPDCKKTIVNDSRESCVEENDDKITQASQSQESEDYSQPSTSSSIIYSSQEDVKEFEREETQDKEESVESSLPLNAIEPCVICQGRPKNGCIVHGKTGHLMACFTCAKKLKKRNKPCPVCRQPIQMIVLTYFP
# Results are given in words; binding and its absence hold for the method and conditions named. Binding seen in cells or lysates may run through a third protein. Some entries that bind do so weakly or less than the wild type.
# Tests used:
# [1] = target: T1, VDAC3 (human (endogenous in 293T)) (UniProt Q9Y277); experiment: co-IP; whole cell lysates (293T cells by the discussion), about 1 mg protein extract, 3 ug anti-VDAC3 or anti-FBXW7 antibody or normal IgG overnight at 4°C, protein A/G beads, four washes with IP lysis buffer, immunoblot of the partner
# T1 sequence: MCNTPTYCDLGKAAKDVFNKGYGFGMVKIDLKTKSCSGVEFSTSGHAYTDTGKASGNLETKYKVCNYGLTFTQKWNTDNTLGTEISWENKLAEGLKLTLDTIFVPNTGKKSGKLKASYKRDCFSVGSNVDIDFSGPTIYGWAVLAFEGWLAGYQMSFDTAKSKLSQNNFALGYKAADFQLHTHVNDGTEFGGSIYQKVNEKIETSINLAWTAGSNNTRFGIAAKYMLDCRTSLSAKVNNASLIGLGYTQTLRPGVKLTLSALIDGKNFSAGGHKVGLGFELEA
# [2] = target: T1, VDAC3 (human (endogenous in 293T)); experiment: co-IP; Co-IP and IB assays; no figure shown; cells and direction of the precipitation not stated
binding [1],binding [2],Substance
binds,–,F-box and WD repeat domain containing 7 (FBXW7) (from UniProt Q969H0 1-707)
–,no binding,MDM2 (from UniProt Q00987 1-491)
